## Library screen at single concentrations

The filed quantity is “Percent Effect” (%). How 0% and 100% were set is not recorded. Most values in the screen are low, and negative values occur. Compounds were drawn at random from those tested, without regard to their results. A dash means the value is not listed here; it may have been measured.

A: 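Assay of Toxoplasma gondii numbers, read through their beta-galactosidase reporter with a colour substrate. Compounds at 10 µM. Higher reads as fewer parasites (inferred from which compounds were picked for retests). Of about 67,000 compounds tested this way, about 260 (0.38%) reached 50% or more in at least one test.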
B: 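Whole-parasite assay of Trypanosoma brucei over 72 hours; the read-out is not stated. Concentration: 30 µM. The record gives no direction; compounds that gave an IC50 in retests scored well above the rest, so higher reads as stronger inhibition. Values scatter widely below zero; nearly all retest evidence comes from the higher of the two concentrations used. Of about 64,000 compounds tested this way, about 940 (1.5%) reached 50% or more in at least one test.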

structure	A	B
O=C(CCc1cnn(-c2ccccc2)c1)N1CCCC(n2cccn2)C1 (stereo unspecified)	-25.55	-1.971
Cc1ccccc1CSc1nc(N)cc(N2CCOC(C(N)=O)C2)n1 (stereo unspecified)	-1.223	35.84
CCN(CC(=O)NC(C)C)C(=O)c1ccc(-c2ccsc2)nc1C	-31.3	-3.963
O=C(O)C(F)(F)F.[H][C@@]12COC[C@]1(COc1ccccn1)CN(S(=O)(=O)N(C)C)C2	3.832	-4.598
O=C(Cc1ccc2c(c1)OCC2)Nc1nc(C(F)(F)F)n[nH]1	-10.83	-9.223
Cc1nnc(SCC(=O)NCc2ccc3c(c2)CCC(=O)N3)n1C	-2.621	-12.42
O=C(c1cccc2c1OCO2)N1CCCC(n2cccn2)C1 (stereo unspecified)	2.125	-17.49
C=Cc1ccc(CSc2nc3c(c(=O)[nH]2)CN(CCC)CC3)cc1	12.23	-30.51
COc1cc(NC(=O)NCc2ccccn2)cc(OC)c1	5.061	-43.07
COc1ccc(CN2Cc3nnn(C)c3C(COCCN(C)C)C2)cc1.O=C(O)C(F)(F)F.O=C(O)C(F)(F)F (stereo unspecified)	3.045	-19.59
Cc1nc(C2CCCN(C(=O)COCc3ccccc3)C2)no1 (stereo unspecified)	-6.362	10.57
O=C(NCc1cccnc1-n1cncn1)c1ccc2c(c1)CCO2	-1.621	-24.02
Cc1cc(C(F)(F)F)nn1CC(C)C(=O)NC(C)C (stereo unspecified)	10.98	-14.12
COc1ccc(F)cc1CSCC(=O)N(C)CCC#N	9.459	-10.77
Cc1cnn(CC2CCCN2Cc2noc(C(C)(C)C)n2)c1 (stereo unspecified)	-13.18	11
CCC1c2ccsc2CCN1C(=O)NCCNc1ncccn1 (stereo unspecified)	-17.67	-13.45
CC(NS(=O)(=O)CCCC#N)c1cccc(-n2cccn2)c1 (stereo unspecified)	-2.967	-40.14
O=C(NC1(c2nc(C3CC3)no2)CCCCC1)c1cccnc1O	-9.189	-10.1
CC(C)CNC(=O)N1CCC2(CC1)OC(C(N)=O)Cn1ccnc12.O=C(O)C(F)(F)F (stereo unspecified)	-36.45	-37.34
NC(=O)c1ccc(S(=O)(=O)NC2CCN(Cc3ccccc3)C2=O)cc1 (stereo unspecified)	-	-5.603
CCOCCCNS(=O)(=O)c1ccc2c(c1)NC(=O)C(C)O2 (stereo unspecified)	-29.93	-20.76
c1ccc(Cc2nc(CNC3CCOC4(CCOCC4)C3)no2)cc1 (stereo unspecified)	-4.019	12.32
CC(=O)NCCc1ccc(S(=O)(=O)N(CC(C)C)C(C)C)s1	-0.4653	-61.57
CCCn1c(C)c(CC(=O)N(C)CC(=O)OC)c2c1CC(C)(C)CC2=O	4.205	-11.08
CNc1nccnc1C1CN(C(=O)c2c[nH]cn2)CCO1 (stereo unspecified)	2.042	-33.22
COc1cc(I)c(Cl)cc1C(=O)N(C)CC(=O)NC(C)(C)C	-10.34	-4.308
[H][C@]12CC[C@]([H])(CN(Cc3ccccc3)C1)N(C(=O)c1ccc(SC)cc1)C2	-3.862	2.412
COc1ccc(-c2cn(CCn3c(C)cc(C)nc3=O)nn2)cn1	-0.579	4.837
CCN(C)c1ncnc2c1CCN(C(=O)c1ccccn1)CC2.O=C(O)C(F)(F)F.O=C(O)C(F)(F)F	2.592	-46.23
COCCN1CCC(CNC(=O)C2(c3cccc(C)c3)CC2)C1 (stereo unspecified)	-27.08	11.75
c1cnnc(-c2noc(COCC3CCCO3)n2)c1 (stereo unspecified)	-4.704	-43.09
Cc1ccc(C(=O)NCc2ccnc(C3CCCOC3)n2)s1 (stereo unspecified)	11.65	49.43
Cc1noc(C)c1-c1nc(NCCN(C)C)ncc1-c1cnccn1	4.263	-24.32
Cc1ccc(CC(=O)N2CCCC(c3nccs3)C2)cn1 (stereo unspecified)	3.893	-
CCn1nc2c(cc1=O)CN(Cc1nc(C)c3ccccc3n1)CC2	13.21	-4.658
Cc1nc(C(C)C)sc1C(=O)NCCNc1ncccn1	-28.58	16.9
CC(Cn1cncn1)NCc1ccc2nonc2c1 (stereo unspecified)	-1.441	3.021
Cc1cc(Cc2ccc(S(=O)(=O)N3CCCC3)cc2)c(=O)[nH]n1	-0.2319	-46.39
COCC1CC2(CCN(Cc3cccnc3)CC2)CN1C(C)C (stereo unspecified)	4.816	28.48
CCCS(=O)(=O)N1CCOCC2(CCN(c3ccccn3)C2)C1.O=C(O)C(F)(F)F (stereo unspecified)	-3.945	-15.39
Cc1ccccc1Cn1nnc2cc3c(cc2c1=O)OCCO3	-5.767	12.25
Cc1oc(C)c(C(=O)NCc2cccnc2N(C)C)c1C	-18.49	-47.02
O=C(O)C(F)(F)F.O=C(O)C(F)(F)F.[H][C@@]12CN(C(=O)c3ccoc3C)C[C@]1([H])OCCN2CCN1CCCC1	-23.84	-165.9
CCN1CCN(c2nc(O)cc(Cc3ccccc3F)n2)CC1	5.685	-
COc1ccccc1OCCCc1cc(C#N)ccn1	2.456	-22.73
CCC(=O)N1CCC(c2nc(C)ncc2-c2ccncc2)CC1	-3.675	-25.07
Oc1cc(-c2cccs2)nc(C2CCCN(CC3=CCCOC3)C2)n1 (stereo unspecified)	19.06	-
Cc1nc(C)c(CNC[C@@]2(COc3cccnc3)C[C@@H](O)[C@@H](O)C2)s1.Cl.Cl	11.58	-7.838
O=C(O)C(F)(F)F.[H][C@]12CN(CCN(C)C)C(=O)[C@@]1([H])CN(S(=O)(=O)c1ccccc1)C2	8.105	-83.85
Fc1ccc2[nH]c([C@H]3CCN(C4CCOCC4)C3)nc2c1	-2.291	-32.62
CC(C)c1nc(CN2CCCC(O)C2)cs1 (stereo unspecified)	-3.706	-4.827
CCCN1CCN(S(=O)(=O)c2ncn(C)c2Cl)CC1	-9.861	-28.37
Nc1no[n+]([O-])c1C(=O)NCc1ccccn1	1.682	-20.44
CNC(=O)C1Cn2ccnc2C2(CCN(C(=O)CC3CCCC3)CC2)O1.O=C(O)C(F)(F)F (stereo unspecified)	5.239	-77.33
COc1ccc2cnn(CC(=O)NCC3CCCO3)c(=O)c2c1OC (stereo unspecified)	3.198	-
Cc1ccc(N2CCCC(N(C)Cc3cc(C)on3)C2)nn1 (stereo unspecified)	-	-27.88
O=C(O)C(F)(F)F.[H][C@]12CN(Cc3csc(C)n3)C(=O)[C@@]1([H])CN(c1ncc(F)cn1)C2	-2.916	-

The first 6 entries again:

{"structure": "O=C(CCc1cnn(-c2ccccc2)c1)N1CCCC(n2cccn2)C1", "stereo": "stereo unspecified", "A": -25.55, "B": -1.971}
{"structure": "Cc1ccccc1CSc1nc(N)cc(N2CCOC(C(N)=O)C2)n1", "stereo": "stereo unspecified", "A": -1.223, "B": 35.84}
{"structure": "CCN(CC(=O)NC(C)C)C(=O)c1ccc(-c2ccsc2)nc1C", "A": -31.3, "B": -3.963}
{"structure": "O=C(O)C(F)(F)F.[H][C@@]12COC[C@]1(COc1ccccn1)CN(S(=O)(=O)N(C)C)C2", "A": 3.832, "B": -4.598}
{"structure": "O=C(Cc1ccc2c(c1)OCC2)Nc1nc(C(F)(F)F)n[nH]1", "A": -10.83, "B": -9.223}
{"structure": "Cc1nnc(SCC(=O)NCc2ccc3c(c2)CCC(=O)N3)n1C", "A": -2.621, "B": -12.42}

The values are deposited in ChEMBL (CHEMBL3988442, “University of Dundee, Small-Polar-MMV Screening Library” (2021)).